The target in test [1] is Mon2 (endogenous) (human (endogenous in HEK293T and HeLa)) (UniProt Q7Z3U7). Put plainly: affinity purification with mass spectrometry; large-scale IP from HEK293T lysate with Mon2 or Dopey1 antibody (control IgG), Protein A/G beads; 40 mM HEPES pH 7.3, 0.1% Triton X-100, 120 mM NaCl, 4 h at 4 °C; gel slices to LC-MS.
The target in test [2] is Dopey1 (endogenous) (human (endogenous in HEK293T)) (UniProt B2RWN9). The description is as above.

Protein sequences, listed by entry. Tags and fused reporters are not part of them.
UniProt Q7Z3U7: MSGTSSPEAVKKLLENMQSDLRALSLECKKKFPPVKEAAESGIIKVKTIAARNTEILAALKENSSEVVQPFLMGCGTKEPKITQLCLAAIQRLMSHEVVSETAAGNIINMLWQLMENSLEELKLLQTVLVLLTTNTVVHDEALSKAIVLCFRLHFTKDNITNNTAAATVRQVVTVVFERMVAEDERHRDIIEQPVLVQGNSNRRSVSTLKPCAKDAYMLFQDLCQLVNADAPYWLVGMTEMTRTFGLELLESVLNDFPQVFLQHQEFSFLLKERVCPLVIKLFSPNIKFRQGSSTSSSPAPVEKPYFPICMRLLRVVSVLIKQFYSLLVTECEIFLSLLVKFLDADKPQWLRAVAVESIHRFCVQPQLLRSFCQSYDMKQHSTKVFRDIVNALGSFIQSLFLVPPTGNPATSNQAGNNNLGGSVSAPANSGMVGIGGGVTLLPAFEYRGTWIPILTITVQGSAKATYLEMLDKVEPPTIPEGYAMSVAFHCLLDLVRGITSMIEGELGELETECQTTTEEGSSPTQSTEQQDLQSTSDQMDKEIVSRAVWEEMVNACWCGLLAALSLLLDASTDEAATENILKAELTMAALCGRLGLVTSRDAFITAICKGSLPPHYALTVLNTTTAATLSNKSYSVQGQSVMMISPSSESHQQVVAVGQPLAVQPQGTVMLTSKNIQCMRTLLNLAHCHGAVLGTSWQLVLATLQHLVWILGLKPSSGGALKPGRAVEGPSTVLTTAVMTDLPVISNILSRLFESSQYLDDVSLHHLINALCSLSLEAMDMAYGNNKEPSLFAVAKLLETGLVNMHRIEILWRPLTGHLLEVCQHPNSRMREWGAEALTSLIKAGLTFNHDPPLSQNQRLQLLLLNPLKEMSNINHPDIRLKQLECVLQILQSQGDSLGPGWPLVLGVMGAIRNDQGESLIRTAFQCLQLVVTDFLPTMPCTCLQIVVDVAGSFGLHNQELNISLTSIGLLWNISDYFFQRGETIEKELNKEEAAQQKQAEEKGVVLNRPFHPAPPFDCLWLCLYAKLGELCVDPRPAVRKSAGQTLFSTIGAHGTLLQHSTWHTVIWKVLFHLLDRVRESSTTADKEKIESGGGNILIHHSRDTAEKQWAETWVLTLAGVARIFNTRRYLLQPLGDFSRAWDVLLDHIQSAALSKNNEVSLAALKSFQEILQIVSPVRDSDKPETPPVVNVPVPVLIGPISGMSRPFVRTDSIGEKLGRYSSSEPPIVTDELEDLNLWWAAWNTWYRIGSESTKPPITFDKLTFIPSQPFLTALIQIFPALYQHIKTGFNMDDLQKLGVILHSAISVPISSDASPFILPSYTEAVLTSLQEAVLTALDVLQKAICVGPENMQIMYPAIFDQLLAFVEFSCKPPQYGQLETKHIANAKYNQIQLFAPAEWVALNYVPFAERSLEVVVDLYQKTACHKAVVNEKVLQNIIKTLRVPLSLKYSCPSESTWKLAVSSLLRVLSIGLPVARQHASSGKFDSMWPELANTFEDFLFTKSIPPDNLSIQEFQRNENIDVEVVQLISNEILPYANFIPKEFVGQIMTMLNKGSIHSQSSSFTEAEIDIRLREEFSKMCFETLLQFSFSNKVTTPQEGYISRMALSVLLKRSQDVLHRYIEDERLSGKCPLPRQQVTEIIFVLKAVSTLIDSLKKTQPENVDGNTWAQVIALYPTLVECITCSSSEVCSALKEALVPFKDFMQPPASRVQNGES
UniProt B2RWN9: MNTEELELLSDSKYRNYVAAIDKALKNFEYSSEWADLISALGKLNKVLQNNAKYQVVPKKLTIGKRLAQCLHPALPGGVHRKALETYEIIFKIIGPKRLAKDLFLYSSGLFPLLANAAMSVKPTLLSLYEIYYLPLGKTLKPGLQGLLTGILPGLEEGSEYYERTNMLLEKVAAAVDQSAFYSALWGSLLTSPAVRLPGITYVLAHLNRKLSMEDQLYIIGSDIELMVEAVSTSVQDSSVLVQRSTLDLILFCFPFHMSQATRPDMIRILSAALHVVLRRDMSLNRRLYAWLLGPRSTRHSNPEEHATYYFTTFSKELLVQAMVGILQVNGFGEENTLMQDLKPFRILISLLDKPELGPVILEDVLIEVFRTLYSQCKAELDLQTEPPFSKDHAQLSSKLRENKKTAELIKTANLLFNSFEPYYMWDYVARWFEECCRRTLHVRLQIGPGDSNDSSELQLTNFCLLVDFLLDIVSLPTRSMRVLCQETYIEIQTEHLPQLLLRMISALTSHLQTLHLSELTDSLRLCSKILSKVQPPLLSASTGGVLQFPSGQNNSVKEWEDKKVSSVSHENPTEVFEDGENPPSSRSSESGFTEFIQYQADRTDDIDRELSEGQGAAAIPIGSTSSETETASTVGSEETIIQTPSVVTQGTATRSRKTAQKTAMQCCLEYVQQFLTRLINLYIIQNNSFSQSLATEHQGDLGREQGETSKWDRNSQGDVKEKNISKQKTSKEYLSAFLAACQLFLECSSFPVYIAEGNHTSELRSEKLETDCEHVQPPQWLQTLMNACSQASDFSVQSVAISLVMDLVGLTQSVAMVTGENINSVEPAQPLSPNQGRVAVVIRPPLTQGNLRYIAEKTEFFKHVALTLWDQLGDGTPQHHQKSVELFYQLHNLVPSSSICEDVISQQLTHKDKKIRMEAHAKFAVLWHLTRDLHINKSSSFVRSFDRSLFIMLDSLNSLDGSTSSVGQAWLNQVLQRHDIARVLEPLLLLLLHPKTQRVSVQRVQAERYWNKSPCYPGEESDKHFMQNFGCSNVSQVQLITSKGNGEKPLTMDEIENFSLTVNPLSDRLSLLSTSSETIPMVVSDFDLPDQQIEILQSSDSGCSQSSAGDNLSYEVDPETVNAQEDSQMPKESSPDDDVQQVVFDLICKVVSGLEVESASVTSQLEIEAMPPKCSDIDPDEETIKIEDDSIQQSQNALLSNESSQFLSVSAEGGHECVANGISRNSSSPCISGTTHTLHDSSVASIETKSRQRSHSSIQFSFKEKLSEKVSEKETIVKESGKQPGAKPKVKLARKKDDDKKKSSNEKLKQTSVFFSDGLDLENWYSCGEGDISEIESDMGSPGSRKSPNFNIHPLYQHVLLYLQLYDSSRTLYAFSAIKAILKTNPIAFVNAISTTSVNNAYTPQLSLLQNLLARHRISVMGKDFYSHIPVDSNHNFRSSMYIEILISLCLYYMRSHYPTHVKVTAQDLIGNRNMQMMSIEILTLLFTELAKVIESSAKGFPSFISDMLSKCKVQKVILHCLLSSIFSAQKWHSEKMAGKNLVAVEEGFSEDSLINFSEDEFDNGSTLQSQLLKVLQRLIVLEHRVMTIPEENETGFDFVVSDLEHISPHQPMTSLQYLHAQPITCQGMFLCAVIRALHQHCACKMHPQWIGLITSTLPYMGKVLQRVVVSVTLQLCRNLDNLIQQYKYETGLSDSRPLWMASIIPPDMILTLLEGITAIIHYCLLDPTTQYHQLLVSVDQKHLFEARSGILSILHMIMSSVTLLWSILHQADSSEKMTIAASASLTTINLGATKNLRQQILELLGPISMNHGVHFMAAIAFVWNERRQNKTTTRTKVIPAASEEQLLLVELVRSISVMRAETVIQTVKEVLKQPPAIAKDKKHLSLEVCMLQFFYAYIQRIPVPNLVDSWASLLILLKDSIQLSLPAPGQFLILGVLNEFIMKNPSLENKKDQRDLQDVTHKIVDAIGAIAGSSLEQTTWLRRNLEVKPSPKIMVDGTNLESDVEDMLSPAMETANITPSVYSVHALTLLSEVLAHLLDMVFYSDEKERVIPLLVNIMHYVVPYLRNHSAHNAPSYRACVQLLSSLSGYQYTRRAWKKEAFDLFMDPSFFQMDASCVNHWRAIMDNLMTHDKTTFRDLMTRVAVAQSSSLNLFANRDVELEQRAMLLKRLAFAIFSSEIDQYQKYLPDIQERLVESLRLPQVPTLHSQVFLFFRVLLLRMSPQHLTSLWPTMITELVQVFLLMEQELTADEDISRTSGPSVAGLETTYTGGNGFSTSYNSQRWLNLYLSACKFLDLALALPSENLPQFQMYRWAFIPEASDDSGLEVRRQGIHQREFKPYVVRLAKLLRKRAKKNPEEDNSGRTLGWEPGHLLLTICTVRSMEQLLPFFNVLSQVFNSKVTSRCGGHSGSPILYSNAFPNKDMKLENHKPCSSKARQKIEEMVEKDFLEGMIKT

These are yes or no findings as the source states them, for the method shown. Binding seen in cells or lysates may run through a third protein. Here binding means that the protein was enriched with, or labelled near, the bait; the list need not be complete.

Turning to “Dopey1 (endogenous) (from UniProt B2RWN9 1-2456)”, in test [1], the binding entry is reported as “binds”.
With “Mon2 (endogenous) (from UniProt Q7Z3U7 1-1717)”, the binding entry in test [2] is “binds”.

The values are drawn from publication PMC6642134, “Dopey1-Mon2 complex binds to dual-lipids and recruits kinesin-1 for membrane trafficking” (Nature Communications, 2019).
